Results: patent publication US12378320B2, “Methods for treating pancreatitis” (Cold Spring Harbor Laboratory, priority 2018, dated 2025)

B1: P12023 (protein, UniProt P12023 1-770, looked up)
chain: MLPSLALLLLAAWTVRALEVPTDGNAGLLAEPQIAMFCGKLNMHMNVQNGKWESDPSGTKTCIGTKEGILQYCQEVYPELQITNVVEANQPVTIQNWCKRGRKQCKTHTHIVIPYRCLVGEFVSDALLVPDKCKFLHQERMDVCETHLHWHTVAKETCSEKSTNLHDYGMLLPCGIDKFRGVEFVCCPLAEESDSVDSADAEEDDSDVWWGGADTDYADGGEDKVVEVAEEEEVADVEEEEADDDEDVEDGDEVEEEAEEPYEEATERTTSTATTTTTTTESVEEVVREVCSEQAETGPCRAMISRWYFDVTEGKCVPFFYGGCGGNRNNFDTEEYCMAVCGSVSTQSLLKTTSEPLPQDPDKLPTTAASTPDAVDKYLETPGDENEHAHFQKAKERLEAKHRERMSQVMREWEEAERQAKNLPKADKKAVIQHFQEKVESLEQEAANERQQLVETHMARVEAMLNDRRRLALENYITALQAVPPRPHHVFNMLKKYVRAEQKDRQHTLKHFEHVRMVDPKKAAQIRSQVMTHLRVIYERMNQSLSLLYNVPAVAEEIQDEVDELLQKEQNYSDDVLANMISEPRISYGNDALMPSLTETKTTVELLPVNGEFSLDDLQPWHPFGVDSVPANTENEVEPVDARPAADRGLTTRPGSGLTNIKTEEISEVKMDAEFGHDSGFEVRHQKLVFFAEDVGSNKGAIIGLMVGGVVIATVIVITLVMLKKKQYTSIHHGVVEVDAAVTPEERHLSKMQQNGYENPTYKFFEQMQN
modifications: full-length
B2: P20918 (protein, UniProt P20918 1-812, looked up)
chain: MDHKEVILLFLLLLKPGQGDSLDGYISTQGASLFSLTKKQLAAGGVSDCLAKCEGETDFVCRSFQYHSKEQQCVIMAENSKTSSIIRMRDVILFEKRVYLSECKTGIGNGYRGTMSRTKSGVACQKWGATFPHVPNYSPSTHPNEGLEENYCRNPDNDEQGPWCYTTDPDKRYDYCNIPECEEECMYCSGEKYEGKISKTMSGLDCQAWDSQSPHAHGYIPAKFPSKNLKMNYCRNPDGEPRPWCFTTDPTKRWEYCDIPRCTTPPPPPSPTYQCLKGRGENYRGTVSVTVSGKTCQRWSEQTPHRHNRTPENFPCKNLEENYCRNPDGETAPWCYTTDSQLRWEYCEIPSCESSASPDQSDSSVPPEEQTPVVQECYQSDGQSYRGTSSTTITGKKCQSWAAMFPHRHSKTPENFPDAGLEMNYCRNPDGDKGPWCYTTDPSVRWEYCNLKRCSETGGSVVELPTVSQEPSGPSDSETDCMYGNGKDYRGKTAVTAAGTPCQGWAAQEPHRHSIFTPQTNPRAGLEKNYCRNPDGDVNGPWCYTTNPRKLYDYCDIPLCASASSFECGKPQVEPKKCPGRVVGGCVANPHSWPWQISLRTRFTGQHFCGGTLIAPEWVLTAAHCLEKSSRPEFYKVILGAHEEYIRGLDVQEISVAKLILEPNNRDIALLKLSRPATITDKVIPACLPSPNYMVADRTICYITGWGETQGTFGAGRLKEAQLPVIENKVCNRVEYLNNRVKSTELCAGQLAGGVDSCQGDSGGPLVCFEKDKYILQGVTSWGLGCARPNKPGVYVRVSRFVDWIEREMRNN
modifications: full-length
B3: P01786 (protein, UniProt P01786 1-117, looked up)
chain: EVKLVESGGGLVQPGGSLRLSCATSGFTFTDYYMSWVRQPPGKALEWLGFIRNKABGYTTEYSAVKGRFTISRBBSZGILYLQMNTLRAQDSATYYCARDITEFAYWGZGTLVTVSS
modifications: full-length
B4: O70475 (protein, UniProt O70475 1-493, looked up)
chain: MVEIKKICCIGAGYVGGPTCSVIAHMCPEIRVTVVDVNEARINAWNSPTLPIYEPGLKEVVESCRGKNLFFSTNIDDAIREADLVFISVNTPTKTYGMGKGRAADLKYIEACARRIVQNSNGYKIVTEKSTVPVRAAESIRRIFDANTKPNLNLQVLSNPEFLAEGTAIKDLKNPDRVLIGGDETPEGQKAVRALCAVYEHWVPKEKILTTNTWSSELSKLAANAFLAQRISSINSISALCEATGADVEEVATAIGMDQRIGNKFLKASVGFGGSCFQKDVLNLVYLCEALNLPEVARYWQQVIDMNDYQRRRFASRIIDSLFNTVTDKKIAILGFAFKKDTGDTRESSSIYISKYLMDEGAHLHIYDPKVPREQIVVDLSHPGVSADDQVSRLVTISKDPYEACDGAHALVICTEWDMFKELDYERIHKKMLKPAFIFDGRRVLDGLHSELQTIGFQIETIGKKVSSKRIPYTPGEIPKFSLQDPPNKKPKV
modifications: full-length
B5: O70310 (protein, UniProt O70310 1-496, looked up)
chain: MADESETAVKLPAPSLPLMMEGNGNGHEHCSDCENEEDNSHNRSGLSPANDTGAKKKKKKQKKKKEKGSDMESTQDQPVKMTSLPAERIQEIQKAIELFSVGQGPAKTMEEASKRSYQFWDTQPVPKLGEVVNTHGPVEPDKDNIRQEPYTLPQGFTWDALDLGDRGVLKELYTLLNENYVEDDDNMFRFDYSPEFLLWALRPPGWLPQWHCGVRVVSSRKLVGFISAIPANIHIYDTEKKMVEINFLCVHKKLRSKRVAPVLIREITRRVHLEGIFQAVYTAGVVLPKPVGTCRYWHRSLNPRKLIEVKFSHLSRNMTMQRTMKLYRLPETPKTAGLRPMEKKDIPVVHQLLSRYLKQFHLTPVMNQEEVEHWFYPQENIIDTFVVENANGEVTDFLSFYTLPSTIMNHPTHKSLKAAYSFYNVHTQTPLLDLMSDALVLAKMKGFDVFNALDLMENKTFLEKLKFGIGDGNLQYYLYNWKCPSMGAEKVGLVLQ
modifications: full-length
B6: P19324 (protein, UniProt P19324 1-417, looked up)
chain: MRSLLLGTLCLLAVALAAEVKKPLEAAAPGTAEKLSSKATTLAERSTGLAFSLYQAMAKDQAVENILLSPLVVASSLGLVSLGGKATTASQAKAVLSAEKLRDEEVHTGLGELLRSLSNSTARNVTWKLGSRLYGPSSVSFADDFVRSSKQHYNCEHSKINFRDKRSALQSINEWASQTTDGKLPEVTKDVERTDGALLVNAMFFKPHWDEKFHHKMVDNRGFMVTRSYTVGVTMMHRTGLYNYYDDEKEKLQMVEMPLAHKLSSLIILMPHHVEPLERLEKLLTKEQLKAWMGKMQKKAVAISLPKGVVEVTHDLQKHLAGLGLTEAIDKNKADLSRMSGKKDLYLASVFHATAFEWDTEGNPFDQDIYGREELRSPKLFYADHPFIFLVRDNQSGSLLFIGRLVRPKGDKMRDEL
modifications: full-length
B7: Q9CQ62 (protein, UniProt Q9CQ62 1-335, looked up)
chain: MALLGRAFFAGVSRLPCDPGPQRFFSFGTKTLYQSKDAPQSKFFQPVLKPMLPPDAFQGKVAFITGGGTGLGKAMTTFLSTLGAQCVIASRNIDVLKATAEEISSKTGNKVHAIRCDVRDPDMVHNTVLELIKVAGHPDVVINNAAGNFISPSERLTPNGWKTITDIVLNGTAYVTLEIGKQLIKAQKGAAFLAITTIYAESGSGFVMPSSSAKSGVEAMNKSLAAEWGRYGMRFNIIQPGPIKTKGAFSRLDPTGRFEKEMIDRIPCGRLGTMEELANLATFLCSDYASWINGAVIRFDGGEEVFLSGEFNSLKKVTKEEWDIIEGLIRKTKGS
modifications: full-length

Test system: CA19-9 modified proteins
Test: CA19-9 IP/MS (iTRAQ) of organoid conditioned media after Dox treatment
Parameters: species or system mouse
[1] = CA19-9 IP/MS relative abundance, A217 (genetic negative) organoid conditioned media, 0H (before treatment), IP with NS19-9, reference channel = 1
[2] = CA19-9 IP/MS relative abundance, A217 (genetic negative) organoid conditioned media, after 8 hours, IP with 5B1
[3] = CA19-9 IP/MS relative abundance, A217 (genetic negative) organoid conditioned media, after 8 hours, IP with NS19-9
[4] = CA19-9 IP/MS relative abundance, A220 (C;R^LSL;F) organoid conditioned media, 0H (before treatment), IP with 5B1
[5] = A217 (genetic negative) organoids conditioned media, after 8 hours of treatment, CA19-9 IP with 5B1, relative to 17 0H NS19
[6] = A217 (genetic negative) organoids conditioned media, after 8 hours of treatment, CA19-9 IP with NS19-9, relative to 17 0H NS19
[7] = A217 (genetic negative) organoids conditioned media, before treatment (0H), CA19-9 IP with NS19-9, relative abundance, reference channel
[8] = A220 (C;R^LSL;F) organoids conditioned media, before treatment (0H), CA19-9 IP with 5B1, relative to 17 0H NS19

Molecule | 17 0H NS19 [1] | 17 8H 5B1 [2] | 17 8H NS19 [3] | 20 0H 5B1 [4] | 17 8H 5B1 [5] | 17 8H NS19 [6] | 17 0H NS19 [7] | 20 0H 5B1 [8]
B1 | 1 | 3.393 | 1.207 | 1.115 | – | – | – | –
B2 | 1 | 0.903 | 0.973 | 0.756 | – | – | – | –
B3 | 1 | 0.786 | 0.976 | 0.724 | – | – | – | –
B4 | 1 | 1.917 | 0.596 | 1.929 | – | – | – | –
B5 | 1 | 2.24 | 0.643 | 2.047 | – | – | – | –
B6 | – | – | – | – | 2.356 | 0.505 | 1 | 2.045
B7 | – | – | – | – | 2.301 | 0.557 | 1 | 1.91
